This passage reports binding results from publication doi:10.1101/336305.

This assay deals with T1, Ptf1a (mouse (endogenous in 266-6)) (UniProt Q9QX98).
T1 sequence: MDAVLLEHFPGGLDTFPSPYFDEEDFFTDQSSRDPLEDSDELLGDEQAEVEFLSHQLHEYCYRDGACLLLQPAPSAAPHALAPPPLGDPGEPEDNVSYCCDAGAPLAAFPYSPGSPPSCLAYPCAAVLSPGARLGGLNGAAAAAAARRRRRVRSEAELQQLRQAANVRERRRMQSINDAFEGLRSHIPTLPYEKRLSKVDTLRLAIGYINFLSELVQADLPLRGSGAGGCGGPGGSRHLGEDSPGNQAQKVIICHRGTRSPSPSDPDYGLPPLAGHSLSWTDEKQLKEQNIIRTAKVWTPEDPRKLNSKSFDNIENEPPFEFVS
Put plainly: co-IP.

These are yes or no findings as the source states them, for the method shown. Binding seen in cells or lysates may run through a third protein. Some results given as binding are weak or reduced against the parent protein; the word gives no strength.

B1: Hes1 (protein, UniProt P35428 1-282)
chain: MPADIMEKNSSSPVAATPASVNTTPDKPKTASEHRKSSKPIMEKRRRARINESLSQLKTLILDALKKDSSRHSKLEKADILEMTVKHLRNLQRAQMTAALSTDPSVLGKYRAGFSECMNEVTRFLSTCEGVNTEVRTRLLGHLANCMTQINAMTYPGQAHPALQAPPPPPPSGPAGPQHAPFAPPPPPLVPIPGGAAPPPGSAPCKLGSQAGEAAKVFGGFQVVPAPDGQFAFLIPNGAFAHSGPVIPVYTSNSGTSVGPNAVSPSSGSSLTSDSMWRPWRN
On to B1, for which the binding entry was “binds”.
